Reference: paper PMC7081327
No constants are given. Whether binding was seen depends on the method and setting. In cells and extracts the contact can be indirect. Some entries that bind do so weakly or less than the wild type.

By UniProt entry, the sequences of proteins in these tests, tags left out.
UniProt O43474: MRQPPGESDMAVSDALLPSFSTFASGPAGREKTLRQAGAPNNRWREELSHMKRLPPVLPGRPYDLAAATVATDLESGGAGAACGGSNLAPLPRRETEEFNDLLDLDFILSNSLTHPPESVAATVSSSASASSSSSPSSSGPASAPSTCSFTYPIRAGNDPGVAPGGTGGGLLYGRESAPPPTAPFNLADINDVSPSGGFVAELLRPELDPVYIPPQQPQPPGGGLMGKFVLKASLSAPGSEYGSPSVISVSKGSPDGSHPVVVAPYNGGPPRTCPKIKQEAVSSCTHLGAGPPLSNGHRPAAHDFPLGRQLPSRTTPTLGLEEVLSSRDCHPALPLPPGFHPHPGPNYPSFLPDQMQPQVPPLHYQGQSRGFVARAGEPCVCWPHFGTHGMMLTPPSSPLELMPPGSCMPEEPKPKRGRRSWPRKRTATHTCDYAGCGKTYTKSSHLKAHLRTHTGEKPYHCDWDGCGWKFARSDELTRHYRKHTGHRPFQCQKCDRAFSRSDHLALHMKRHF
UniProt Q9GZV5: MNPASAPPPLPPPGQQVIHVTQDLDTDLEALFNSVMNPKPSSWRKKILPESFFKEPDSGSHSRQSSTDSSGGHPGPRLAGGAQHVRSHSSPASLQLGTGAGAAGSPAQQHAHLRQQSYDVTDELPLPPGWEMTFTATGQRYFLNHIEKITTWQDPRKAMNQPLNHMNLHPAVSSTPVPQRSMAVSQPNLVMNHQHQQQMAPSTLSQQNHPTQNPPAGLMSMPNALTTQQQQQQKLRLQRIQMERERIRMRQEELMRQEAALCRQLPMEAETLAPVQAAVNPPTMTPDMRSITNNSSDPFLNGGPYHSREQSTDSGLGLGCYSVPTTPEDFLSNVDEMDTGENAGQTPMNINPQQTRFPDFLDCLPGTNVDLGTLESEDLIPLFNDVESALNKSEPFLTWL
UniProt P46937: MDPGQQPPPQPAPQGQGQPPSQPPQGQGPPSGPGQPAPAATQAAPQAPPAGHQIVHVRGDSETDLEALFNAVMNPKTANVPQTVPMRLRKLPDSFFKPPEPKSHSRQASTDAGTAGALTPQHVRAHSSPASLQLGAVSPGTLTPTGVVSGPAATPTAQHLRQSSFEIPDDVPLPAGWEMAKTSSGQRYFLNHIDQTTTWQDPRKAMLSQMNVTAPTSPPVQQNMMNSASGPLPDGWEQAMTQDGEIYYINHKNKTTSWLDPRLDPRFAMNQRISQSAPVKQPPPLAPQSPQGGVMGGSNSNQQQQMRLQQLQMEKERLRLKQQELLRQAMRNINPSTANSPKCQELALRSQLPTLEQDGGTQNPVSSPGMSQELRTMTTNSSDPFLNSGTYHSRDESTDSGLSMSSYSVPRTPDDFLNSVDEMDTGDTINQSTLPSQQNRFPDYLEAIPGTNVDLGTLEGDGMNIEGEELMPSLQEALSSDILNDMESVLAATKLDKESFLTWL

Molecular target: KLF4 in N/TERT2G keratinocytes (human (endogenous in N/TERT2G)) (UniProt O43474)
Assay: co-IP; N/TERT2G cells transduced with TEADi or GFP; the interaction is increased by TEADi; precipitating antibody not told in the legend; western blot (Fig. 4a)

Row | Substance | binding
1 | TAZ (WWTR1) in N/TERT2G keratinocytes (from UniProt Q9GZV5 1-400) | binds
2 | YAP1 in N/TERT2G keratinocytes (from UniProt P46937 1-504) | binds
